Source: PubChem BioAssay AID328 (DTP/NCI, 2004)
The list shows only some results of the screen, not a fair sample: it covers a few groups of compounds. Not every dose and run of a compound is shown. T/C: endpoint of the treated group in % of that of the vehicle group. For survival time, the PubChem record calls one and a half times the control and up active, and a quarter to a half above the control has no call in these data; cut-offs in other NCI protocols can differ. Some T/C values are marked as having no survivor count here; that says nothing about deaths at the dose. Schedules are NCI's codes, taken here to give the interval after Q, in days (D) or hours (H), and the number of doses after X. Some entries hold several experiments; their values stand side by side, smallest first.

Test system: BDF1 mice, P388 leukemia ip, median survival T/C
Assay: NCI In Vivo Anticancer Drug Screen. Data for tumor model P388 Leukemia (intraperitoneal) in B6D2F1 (BDF1) mice
Conditions: T/C endpoint: median survival time, higher T/C = longer survival
Procedure: The antitumor activity of compounds was measured in mice bearing transplantable tumors. Survival or tumor size were measured and the results are expressed as the measurement made in the treated group (T) divided by the measurement made in the vehicle treated control group (C). The tumor model used in this assay is P388 Leukemia (intraperitoneal) in B6D2F1 (BDF1) mice

[1] = dose: 0.3 mg/kg/injection, schedule: Q01DX009 (ip), vehicle: saline with Tween-80

FCCNCCCl
T/C (dose: 0.19 mg/kg/injection, schedule: Q04DX003 (ip), vehicle: saline): 100 % of control [survivor count not shown]
T/C (dose: 0.39 mg/kg/injection, schedule: Q04DX003 (ip), vehicle: saline): 100 % of control [survivor count not shown]
T/C (dose: 0.51 mg/kg/injection, schedule: Q01DX009 (ip), vehicle: saline): 100 % of control [survivor count not shown]
T/C (dose: 0.78 mg/kg/injection, schedule: Q04DX003 (ip), vehicle: saline): 95 % of control [survivor count not shown]
T/C (dose: 1.03 mg/kg/injection, schedule: Q01DX009 (ip), vehicle: saline): 104 % of control [survivor count not shown]
T/C (dose: 1.56 mg/kg/injection, schedule: Q04DX003 (ip), vehicle: saline): 118 % of control [survivor count not shown]
T/C (dose: 2.06 mg/kg/injection, schedule: Q01DX009 (ip), vehicle: saline): 100 % of control [survivor count not shown]
T/C (dose: 4.12 mg/kg/injection, schedule: Q01DX009 (ip), vehicle: saline): 115 % of control [survivor count not shown]
T/C (dose: 6.25 mg/kg/injection, schedule: Q01DX009 (ip), vehicle: saline): 135 % of control [survivor count not shown]

BrCCN(CCBr)Cc1ccccc1
T/C [1]: 141 % of control [survivor count not shown]
T/C (dose: 0.5 mg/kg/injection, schedule: Q01DX009 (ip), vehicle: saline with Tween-80): 137 % of control [survivor count not shown]
T/C (dose: 0.74 mg/kg/injection, schedule: Q04DX003 (ip), vehicle: saline with Tween-80): 122 % of control [survivor count not shown]
T/C (dose: 0.75 mg/kg/injection, schedule: Q01DX009 (ip), vehicle: Klucel (hydroxypropylcellulose) (HPC)): 139 % of control [survivor count not shown]
T/C (dose: 0.8 mg/kg/injection, schedule: Q01DX009 (ip), vehicle: saline with Tween-80): 158 % of control [survivor count not shown]
T/C (dose: 1.1 mg/kg/injection, schedule: Q04DX003 (ip), vehicle: saline with Tween-80): 131 % of control [survivor count not shown]
T/C (dose: 1.3 mg/kg/injection, schedule: Q01DX009 (ip), vehicle: saline with Tween-80): 150 [survivor count not shown] and 158 % of control [survivor count not shown]
T/C (dose: 1.5 mg/kg/injection, schedule: Q01DX009 (ip), vehicle: Klucel (hydroxypropylcellulose) (HPC)): 140 % of control [survivor count not shown]
T/C (dose: 1.5 mg/kg/injection, schedule: Q04DX003 (ip), vehicle: Klucel (hydroxypropylcellulose) (HPC)): 132 % of control [survivor count not shown]
T/C (dose: 1.7 mg/kg/injection, schedule: Q04DX003 (ip), vehicle: saline with Tween-80): 131 [survivor count not shown] and 145 % of control [survivor count not shown]
T/C (dose: 2.0 mg/kg/injection, schedule: Q01DX009 (ip), vehicle: saline with Tween-80): 170 % of control [survivor count not shown]
T/C (dose: 2.6 mg/kg/injection, schedule: Q04DX003 (ip), vehicle: saline with Tween-80): 127 [survivor count not shown], 150 [survivor count not shown], 175 % of control [survivor count not shown]
T/C (dose: 3.0 mg/kg/injection, schedule: Q01DX009 (ip), vehicle: Klucel (hydroxypropylcellulose) (HPC)): 150 % of control [survivor count not shown]
T/C (dose: 3.0 mg/kg/injection, schedule: Q01DX009 (ip), vehicle: saline with Tween-80): 169 [survivor count not shown], 179 [survivor count not shown], 204 % of control [survivor count not shown]
T/C (dose: 3.0 mg/kg/injection, schedule: Q04DX003 (ip), vehicle: Klucel (hydroxypropylcellulose) (HPC)): 148 % of control [survivor count not shown]
T/C (dose: 3.0 mg/kg/injection, schedule: Q04DX003 (ip), vehicle: saline with Tween-80): 238 % of control [survivor count not shown]
T/C (dose: 4.0 mg/kg/injection, schedule: Q04DX003 (ip), vehicle: saline with Tween-80): 159 [survivor count not shown] and 180 % of control [survivor count not shown]
T/C (dose: 4.5 mg/kg/injection, schedule: Q01DX009 (ip), vehicle: saline with Tween-80): 191 % of control [survivor count not shown]
T/C (dose: 6.0 mg/kg/injection, schedule: Q01DX009 (ip), vehicle: saline with Tween-80): 121 % of control [survivor count not shown]
T/C (dose: 6.0 mg/kg/injection, schedule: Q04DX003 (ip), vehicle: Klucel (hydroxypropylcellulose) (HPC)): 160 % of control [survivor count not shown]
T/C (dose: 6.0 mg/kg/injection, schedule: Q04DX003 (ip), vehicle: saline with Tween-80): 159 [survivor count not shown], 195 [survivor count not shown], 216 % of control [survivor count not shown]
T/C (dose: 9.0 mg/kg/injection, schedule: Q04DX003 (ip), vehicle: saline with Tween-80): 160 % of control [survivor count not shown]
T/C (dose: 12.0 mg/kg/injection, schedule: Q04DX003 (ip), vehicle: saline with Tween-80): 88 % of control [survivor count not shown]

ClCCN(CCCl)C12CC3CC(CC(C3)C1)C2
T/C (dose: 0.12 mg/kg/injection, schedule: Q01DX009 (ip), vehicle: Klucel (hydroxypropylcellulose) (HPC)): 120 % of control [survivor count not shown]
T/C (dose: 0.25 mg/kg/injection, schedule: Q01DX009 (ip), vehicle: Klucel (hydroxypropylcellulose) (HPC)): 118 % of control [survivor count not shown]
T/C [1]: 160 % of control [survivor count not shown]
T/C (dose: 0.5 mg/kg/injection, schedule: Q01DX009 (ip), vehicle: Klucel (hydroxypropylcellulose) (HPC)): 145 % of control [survivor count not shown]
T/C (dose: 0.6 mg/kg/injection, schedule: Q01DX009 (ip), vehicle: saline with Tween-80): 162 [survivor count not shown] and 183 % of control [survivor count not shown]
T/C (dose: 0.6 mg/kg/injection, schedule: Q04DX003 (ip), vehicle: saline with Tween-80): 136 [survivor count not shown] and 140 % of control [survivor count not shown]
T/C (dose: 1.0 mg/kg/injection, schedule: Q01DX009 (ip), vehicle: Klucel (hydroxypropylcellulose) (HPC)): 200 % of control [survivor count not shown]
T/C (dose: 1.2 mg/kg/injection, schedule: Q01DX009 (ip), vehicle: saline with Tween-80): 153 [survivor count not shown] and 170 % of control [survivor count not shown]
T/C (dose: 1.2 mg/kg/injection, schedule: Q04DX003 (ip), vehicle: saline with Tween-80): 145 [survivor count not shown] and 159 % of control [survivor count not shown]
T/C (dose: 2.4 mg/kg/injection, schedule: Q04DX003 (ip), vehicle: saline with Tween-80): 127 [survivor count not shown] and 136 % of control [survivor count not shown]

N#CC(C#N)=Cc1ccccc1
T/C (dose: 6.25 mg/kg/injection, schedule: Q01DX009 (ip), vehicle: Klucel (hydroxypropylcellulose) (HPC)): 90 % of control [survivor count not shown]
T/C (dose: 12.5 mg/kg/injection, schedule: Q01DX009 (ip), vehicle: Klucel (hydroxypropylcellulose) (HPC)): 100 % of control [survivor count not shown]
T/C (dose: 25.0 mg/kg/injection, schedule: Q01DX009 (ip), vehicle: Klucel (hydroxypropylcellulose) (HPC)): 118 % of control [survivor count not shown]
T/C (dose: 100.0 mg/kg/injection, schedule: Q04DX003 (ip), vehicle: Klucel (hydroxypropylcellulose) (HPC)): 95 % of control [survivor count not shown]
T/C (dose: 200.0 mg/kg/injection, schedule: Q04DX003 (ip), vehicle: Klucel (hydroxypropylcellulose) (HPC)): 91 % of control [survivor count not shown]

Cc1cc2nc(CN(CCCl)CCCl)[nH]c2cc1C
T/C (dose: 16.5 mg/kg/injection, schedule: Q04DX003 (ip), vehicle: saline with Tween-80): 179 % of control [survivor count not shown]
T/C (dose: 25.0 mg/kg/injection, schedule: Q04DX003 (ip), vehicle: saline with Tween-80): 229 % of control [survivor count not shown]
T/C (dose: 37.5 mg/kg/injection, schedule: Q04DX003 (ip), vehicle: saline with Tween-80): 162 % of control [survivor count not shown]
